Test results published in the supplement of paper PMC12823440, “Inhibitors supercharge kinase turnover through native proteolytic circuits” (Nature, 2025).
Where a name gives a salt, the structure may show the parent alone. The list shows a part of the results. Hit calls seldom repeat between salt and free forms of one compound.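 Kinases, fused to nanoluciferase, were expressed in K562 cells; luminescence was measured every 4 h from 2 to 18 h as percent of control (DMSO = 100%, positive control = 0%). A time point is decreased if signal falls significantly (2 sigma). Hits were called by the authors by a rule that is not shown; the count of time points alone does not decide it.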

Chains of the proteins cited; added tags and fusions are not shown. Lines headed by an entry give the natural chain unless they say otherwise; changes in a name come on top.
UniProt O75460: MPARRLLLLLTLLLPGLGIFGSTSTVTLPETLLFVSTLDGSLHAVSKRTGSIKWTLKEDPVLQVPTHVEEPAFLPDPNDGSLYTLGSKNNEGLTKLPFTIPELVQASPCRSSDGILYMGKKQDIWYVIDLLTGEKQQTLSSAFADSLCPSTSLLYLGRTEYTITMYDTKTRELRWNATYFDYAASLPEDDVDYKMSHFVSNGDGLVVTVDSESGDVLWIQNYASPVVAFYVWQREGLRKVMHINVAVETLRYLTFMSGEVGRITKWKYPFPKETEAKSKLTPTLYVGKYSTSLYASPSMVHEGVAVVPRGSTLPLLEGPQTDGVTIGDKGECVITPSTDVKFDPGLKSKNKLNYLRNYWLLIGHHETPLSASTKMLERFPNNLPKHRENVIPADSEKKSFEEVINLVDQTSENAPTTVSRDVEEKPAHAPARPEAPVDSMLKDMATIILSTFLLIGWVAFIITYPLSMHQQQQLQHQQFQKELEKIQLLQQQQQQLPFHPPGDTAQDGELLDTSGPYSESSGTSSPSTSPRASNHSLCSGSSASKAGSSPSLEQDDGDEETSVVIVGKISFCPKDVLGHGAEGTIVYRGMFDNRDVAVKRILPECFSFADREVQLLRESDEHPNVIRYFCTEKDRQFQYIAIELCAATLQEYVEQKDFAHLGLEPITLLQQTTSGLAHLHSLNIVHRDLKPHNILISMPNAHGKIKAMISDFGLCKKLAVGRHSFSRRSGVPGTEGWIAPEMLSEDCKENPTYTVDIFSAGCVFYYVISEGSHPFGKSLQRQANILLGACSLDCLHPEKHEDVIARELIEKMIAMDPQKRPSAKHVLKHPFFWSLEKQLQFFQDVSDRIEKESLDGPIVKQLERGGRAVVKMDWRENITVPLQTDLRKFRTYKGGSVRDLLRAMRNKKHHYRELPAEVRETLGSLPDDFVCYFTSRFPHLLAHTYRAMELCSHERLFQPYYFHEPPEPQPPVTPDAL
UniProt P11362, whole entry, looked up: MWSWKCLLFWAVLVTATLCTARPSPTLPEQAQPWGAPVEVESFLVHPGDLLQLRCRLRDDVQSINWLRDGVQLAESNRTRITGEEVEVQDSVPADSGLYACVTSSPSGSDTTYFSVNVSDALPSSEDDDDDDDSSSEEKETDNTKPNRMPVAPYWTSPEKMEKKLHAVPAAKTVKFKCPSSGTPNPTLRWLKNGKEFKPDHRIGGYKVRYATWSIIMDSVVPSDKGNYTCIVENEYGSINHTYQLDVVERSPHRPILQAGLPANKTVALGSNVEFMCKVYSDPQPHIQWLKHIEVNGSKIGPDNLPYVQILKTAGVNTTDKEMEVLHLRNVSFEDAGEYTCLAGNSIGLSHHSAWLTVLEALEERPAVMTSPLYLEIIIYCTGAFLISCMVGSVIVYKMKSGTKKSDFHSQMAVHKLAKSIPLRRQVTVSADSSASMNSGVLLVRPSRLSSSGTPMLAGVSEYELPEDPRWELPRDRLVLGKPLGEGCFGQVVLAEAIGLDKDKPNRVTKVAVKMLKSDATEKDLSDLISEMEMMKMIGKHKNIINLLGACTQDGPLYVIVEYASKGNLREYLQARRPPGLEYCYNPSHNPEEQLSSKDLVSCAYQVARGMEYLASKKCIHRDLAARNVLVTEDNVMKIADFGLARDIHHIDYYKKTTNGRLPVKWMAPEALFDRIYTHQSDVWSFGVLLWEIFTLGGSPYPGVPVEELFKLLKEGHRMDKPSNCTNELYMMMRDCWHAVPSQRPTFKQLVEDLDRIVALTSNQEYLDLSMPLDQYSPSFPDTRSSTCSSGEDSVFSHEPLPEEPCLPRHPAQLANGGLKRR
UniProt P21802, whole entry, looked up: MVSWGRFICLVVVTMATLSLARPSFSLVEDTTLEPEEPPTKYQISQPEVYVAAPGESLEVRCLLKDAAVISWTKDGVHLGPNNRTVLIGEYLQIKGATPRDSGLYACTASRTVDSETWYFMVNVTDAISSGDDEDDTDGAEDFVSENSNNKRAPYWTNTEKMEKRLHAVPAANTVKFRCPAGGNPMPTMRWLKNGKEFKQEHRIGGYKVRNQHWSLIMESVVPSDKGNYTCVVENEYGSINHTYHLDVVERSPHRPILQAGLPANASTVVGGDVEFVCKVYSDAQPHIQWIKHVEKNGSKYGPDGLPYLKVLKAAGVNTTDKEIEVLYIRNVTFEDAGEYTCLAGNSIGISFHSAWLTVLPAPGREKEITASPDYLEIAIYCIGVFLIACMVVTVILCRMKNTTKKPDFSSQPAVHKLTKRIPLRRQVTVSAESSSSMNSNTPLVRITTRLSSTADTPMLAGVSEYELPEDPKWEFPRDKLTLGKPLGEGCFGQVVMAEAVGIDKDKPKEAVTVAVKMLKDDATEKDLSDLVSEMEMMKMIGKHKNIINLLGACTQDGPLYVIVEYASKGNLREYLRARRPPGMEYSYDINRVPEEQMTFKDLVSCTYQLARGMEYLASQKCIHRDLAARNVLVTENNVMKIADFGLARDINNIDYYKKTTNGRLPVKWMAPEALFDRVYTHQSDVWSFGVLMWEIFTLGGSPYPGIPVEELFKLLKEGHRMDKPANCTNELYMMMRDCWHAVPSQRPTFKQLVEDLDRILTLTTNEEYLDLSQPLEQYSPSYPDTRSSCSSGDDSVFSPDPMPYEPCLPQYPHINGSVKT
UniProt P22607, whole entry, looked up: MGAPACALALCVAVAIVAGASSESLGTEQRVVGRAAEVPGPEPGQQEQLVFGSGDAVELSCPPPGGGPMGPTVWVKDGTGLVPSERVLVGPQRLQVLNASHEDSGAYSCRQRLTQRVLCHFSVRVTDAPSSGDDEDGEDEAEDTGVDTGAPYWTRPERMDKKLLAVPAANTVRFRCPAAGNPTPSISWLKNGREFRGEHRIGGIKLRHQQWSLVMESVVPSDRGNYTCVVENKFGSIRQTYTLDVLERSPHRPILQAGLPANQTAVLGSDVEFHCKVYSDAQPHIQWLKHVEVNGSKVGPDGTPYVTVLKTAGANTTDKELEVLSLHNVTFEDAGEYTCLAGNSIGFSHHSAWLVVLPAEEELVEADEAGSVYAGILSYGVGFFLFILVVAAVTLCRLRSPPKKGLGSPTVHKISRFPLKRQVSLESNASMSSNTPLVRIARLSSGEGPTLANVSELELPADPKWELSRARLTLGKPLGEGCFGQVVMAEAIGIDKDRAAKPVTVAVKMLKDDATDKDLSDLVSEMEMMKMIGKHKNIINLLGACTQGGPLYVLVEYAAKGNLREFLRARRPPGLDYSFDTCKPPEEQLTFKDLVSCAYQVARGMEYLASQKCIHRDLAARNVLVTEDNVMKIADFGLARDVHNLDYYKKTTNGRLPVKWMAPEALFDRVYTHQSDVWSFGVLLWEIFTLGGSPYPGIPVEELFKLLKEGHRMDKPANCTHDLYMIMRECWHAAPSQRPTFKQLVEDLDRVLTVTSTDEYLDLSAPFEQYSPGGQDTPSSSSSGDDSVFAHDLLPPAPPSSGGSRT
UniProt P36888, whole entry: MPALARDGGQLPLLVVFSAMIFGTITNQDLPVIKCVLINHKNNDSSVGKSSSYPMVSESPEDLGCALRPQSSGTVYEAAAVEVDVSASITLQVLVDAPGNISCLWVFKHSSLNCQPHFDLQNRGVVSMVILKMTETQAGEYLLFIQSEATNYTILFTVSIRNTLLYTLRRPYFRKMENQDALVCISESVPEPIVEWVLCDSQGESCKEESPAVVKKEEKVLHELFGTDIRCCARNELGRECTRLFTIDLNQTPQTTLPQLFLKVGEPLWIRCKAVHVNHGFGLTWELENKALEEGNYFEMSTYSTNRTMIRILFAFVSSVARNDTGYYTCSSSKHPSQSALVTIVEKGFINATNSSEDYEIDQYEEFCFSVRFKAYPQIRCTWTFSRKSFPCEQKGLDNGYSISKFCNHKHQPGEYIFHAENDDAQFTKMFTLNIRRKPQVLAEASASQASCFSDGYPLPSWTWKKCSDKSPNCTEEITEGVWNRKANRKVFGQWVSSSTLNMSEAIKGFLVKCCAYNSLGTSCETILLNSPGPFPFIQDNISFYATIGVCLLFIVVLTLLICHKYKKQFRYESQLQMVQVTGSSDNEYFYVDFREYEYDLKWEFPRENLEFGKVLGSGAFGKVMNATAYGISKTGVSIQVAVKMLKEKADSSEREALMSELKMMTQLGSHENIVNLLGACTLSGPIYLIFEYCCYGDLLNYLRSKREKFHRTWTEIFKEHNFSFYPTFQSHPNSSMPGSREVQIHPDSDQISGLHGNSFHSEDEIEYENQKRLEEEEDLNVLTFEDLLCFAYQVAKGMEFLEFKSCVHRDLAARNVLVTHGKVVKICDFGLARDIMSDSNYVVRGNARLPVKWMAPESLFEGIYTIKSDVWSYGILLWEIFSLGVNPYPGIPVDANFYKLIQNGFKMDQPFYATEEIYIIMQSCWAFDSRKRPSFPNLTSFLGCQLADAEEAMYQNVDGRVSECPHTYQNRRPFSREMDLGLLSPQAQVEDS
UniProt P49840: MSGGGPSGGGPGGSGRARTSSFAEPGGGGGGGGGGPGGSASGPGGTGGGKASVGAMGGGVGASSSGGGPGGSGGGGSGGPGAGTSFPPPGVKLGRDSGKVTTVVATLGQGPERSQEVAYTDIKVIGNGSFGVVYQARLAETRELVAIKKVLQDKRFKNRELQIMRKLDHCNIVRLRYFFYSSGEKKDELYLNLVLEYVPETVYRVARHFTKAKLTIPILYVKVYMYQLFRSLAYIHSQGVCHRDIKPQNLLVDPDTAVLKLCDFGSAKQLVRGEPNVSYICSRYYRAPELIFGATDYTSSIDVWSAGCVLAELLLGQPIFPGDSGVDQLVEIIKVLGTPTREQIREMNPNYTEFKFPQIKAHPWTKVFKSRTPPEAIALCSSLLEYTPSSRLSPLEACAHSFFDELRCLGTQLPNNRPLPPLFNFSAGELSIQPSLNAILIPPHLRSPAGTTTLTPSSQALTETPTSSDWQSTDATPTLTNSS
UniProt P14616: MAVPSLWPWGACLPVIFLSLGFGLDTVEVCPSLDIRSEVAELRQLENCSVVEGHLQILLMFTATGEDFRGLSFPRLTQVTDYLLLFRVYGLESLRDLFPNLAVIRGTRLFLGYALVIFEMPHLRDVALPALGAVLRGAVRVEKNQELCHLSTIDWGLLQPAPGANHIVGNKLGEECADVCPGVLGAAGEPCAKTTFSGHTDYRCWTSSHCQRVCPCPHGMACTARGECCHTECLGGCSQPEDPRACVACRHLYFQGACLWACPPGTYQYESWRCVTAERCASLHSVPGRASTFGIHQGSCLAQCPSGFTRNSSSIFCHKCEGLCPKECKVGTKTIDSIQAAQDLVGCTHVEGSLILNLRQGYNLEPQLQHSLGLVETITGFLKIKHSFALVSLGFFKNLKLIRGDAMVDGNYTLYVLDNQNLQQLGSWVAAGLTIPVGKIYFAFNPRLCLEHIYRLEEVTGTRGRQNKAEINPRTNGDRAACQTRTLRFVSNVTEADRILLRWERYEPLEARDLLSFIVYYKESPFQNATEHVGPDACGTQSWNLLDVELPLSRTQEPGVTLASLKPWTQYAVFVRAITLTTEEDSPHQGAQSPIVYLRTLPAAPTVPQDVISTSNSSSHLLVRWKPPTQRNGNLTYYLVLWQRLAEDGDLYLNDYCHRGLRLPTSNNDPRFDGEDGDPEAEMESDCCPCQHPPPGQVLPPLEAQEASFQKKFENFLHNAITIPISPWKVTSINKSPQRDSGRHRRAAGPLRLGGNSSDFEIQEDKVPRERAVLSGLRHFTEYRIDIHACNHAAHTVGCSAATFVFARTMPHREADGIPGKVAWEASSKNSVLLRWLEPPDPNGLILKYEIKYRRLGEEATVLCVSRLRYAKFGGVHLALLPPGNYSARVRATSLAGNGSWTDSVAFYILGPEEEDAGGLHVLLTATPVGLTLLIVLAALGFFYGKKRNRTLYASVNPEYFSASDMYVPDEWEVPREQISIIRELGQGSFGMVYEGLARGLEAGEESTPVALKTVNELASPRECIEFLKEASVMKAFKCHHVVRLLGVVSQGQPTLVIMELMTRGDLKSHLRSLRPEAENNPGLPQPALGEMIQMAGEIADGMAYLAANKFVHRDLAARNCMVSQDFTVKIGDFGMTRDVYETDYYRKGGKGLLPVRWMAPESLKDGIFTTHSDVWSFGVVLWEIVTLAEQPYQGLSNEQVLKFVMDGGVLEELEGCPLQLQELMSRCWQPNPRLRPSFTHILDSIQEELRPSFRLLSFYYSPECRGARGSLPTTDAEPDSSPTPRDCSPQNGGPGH

Legend:
Assay in all cases: kinase-Nluc reporter destabilization hit call (1 = scored as downregulated) (binary); higher = compound decreases kinase abundance
Conditions in all cases: K562; 2-18 h
ERN1 = ERN1 (UniProt O75460)
FGFR1 = FGFR1 (UniProt P11362)
FGFR2 = FGFR2 (UniProt P21802)
FGFR3 = FGFR3 (UniProt P22607)
FGR = FGR (UniProt P09769)
FLT3 = FLT3 (UniProt P36888)
FYN = FYN (UniProt P06241)
GSK3A = GSK3A (UniProt P49840)
HER2 = HER2 (UniProt P04626)
INSRR = INSRR (UniProt P14616)

Measured: kinase-Nluc reporter destabilization hit call

N=C(N)NC(=N)NCCc1ccccc1 [Phenformin (hydrochloride)] (10 µM)
inactive: ERN1 = 0 | FGFR1 = 0 | FGFR2 = 0 | FGFR3 = 0 | FGR 0 | FLT3 = 0 | FYN 0 | GSK3A 0 | HER2 = 0 | INSRR 0

CC(CCc1ccccn1)(CCc1ccccn1)C(=O)c1ccccc1 (10 µM)
inactive: ERN1 = 0 | FGFR1 = 0 | FGFR2 = 0 | FGFR3 = 0 | FGR 0 | FLT3 = 0 | FYN 0 | GSK3A 0 | HER2 = 0 | INSRR 0

CC[C@H](Nc1ncnc2[nH]cnc12)c1oc2ccccc2c(=O)c1-c1cccc(F)c1 [Tenalisib] (10 µM)
inactive: ERN1 = 0 | FGFR1 = 0 | FGFR2 = 0 | FGFR3 = 0 | FGR 0 | FLT3 = 0 | FYN 0 | GSK3A 0 | HER2 = 0 | INSRR 0

Oc1ccccc1C(=S)N1CCCC1 (10 µM)
inactive: ERN1 = 0 | FGFR1 = 0 | FGFR2 = 0 | FGFR3 = 0 | FGR 0 | FLT3 = 0 | FYN 0 | GSK3A 0 | HER2 = 0 | INSRR 0

COc1ccc2c(c1)c(C1=C(c3c[nH]c4ccccc34)C(=O)NC1=O)cn2CCCN(C)C (10 µM)
inactive: ERN1 = 0 | FGFR1 = 0 | FGFR2 = 0 | FGFR3 = 0 | FGR 0 | FLT3 = 0 | FYN 0 | GSK3A 0 | HER2 = 0 | INSRR 0

CC[C@@H]1C(=O)N(C)c2cnc(Nc3ccc(C(=O)N[C@H]4CC[C@H](N5CCN(CC6CC6)CC5)CC4)cc3OC)nc2N1C(C)C [Volasertib] (2.5 µM)
inactive: ERN1 = 0 | FGFR1 = 0 | FGFR2 = 0 | FGFR3 = 0 | FGR 0 | FLT3 = 0 | FYN 0 | GSK3A 0 | HER2 = 0 | INSRR 0

CC[C@H](C)[C@H](NC(=O)[C@H](CCC(=O)O)NC(=O)[C@H](CCCN=C(N)N)NC(=O)[C@H](CCCN=C(N)N)NC(=O)[C@@H](N)CCCCN)C(=O)N[C@@H](CC(C)C)C(=O)N[C@@H](CO)C(=O)N[C@@H](CCCN=C(N)N)C(=O)N[C@@H](CCCN=C(N)N)C(=O)N1CCC[C@H]1C(=O)N[C@@H](CO)C(=O)N[C@@H](Cc1ccc(O)cc1)C(=O)N[C@@H](CCCN=C(N)N)C(=O)O [CREBtide] (10 µM)
inactive: ERN1 = 0 | FGFR1 = 0 | FGFR2 = 0 | FGFR3 = 0 | FGR 0 | FLT3 = 0 | FYN 0 | GSK3A 0 | HER2 = 0 | INSRR 0

CN(C)c1nc2c(Br)c(Br)c(Br)c(Br)c2n1CC(=O)O (10 µM)
inactive: ERN1 = 0 | FGFR1 = 0 | FGFR2 = 0 | FGFR3 = 0 | FGR 0 | FLT3 = 0 | FYN 0 | GSK3A 0 | HER2 = 0 | INSRR 0

CCOc1nc(Nc2ccc(C(=O)N3CCOCC3)cc2OC)nc2[nH]ccc12 [LRRK2 inhibitor 1] (2.5 µM)
inactive: ERN1 = 0 | FGFR1 = 0 | FGFR2 = 0 | FGFR3 = 0 | FGR 0 | FLT3 = 0 | FYN 0 | GSK3A 0 | HER2 = 0 | INSRR 0

CN(C)Cc1cccc(N=C(c2ccccc2)c2c(O)[nH]c3cc(C(=O)N(C)C)ccc23)c1 (10 µM)
inactive: ERN1 = 0 | FGFR1 = 0 | FGFR2 = 0 | FGFR3 = 0 | FGR 0 | FLT3 = 0 | FYN 0 | GSK3A 0 | HER2 = 0 | INSRR 0

CC(C)C[C@H](NC(=O)[C@H](CCCCN)NC(=O)[C@H](CO)NC(=O)[C@@H](N)CC(C)C)C(N)=O [LSKL, Inhibitor of Thrombospondin (TSP-1) (TFA)] (10 µM)
inactive: ERN1 = 0 | FGFR1 = 0 | FGFR2 = 0 | FGFR3 = 0 | FGR 0 | FLT3 = 0 | FYN 0 | GSK3A 0 | HER2 = 0 | INSRR 0

O=C1NC(=O)C(c2cnc3ccccn23)=C1c1cn2c3c(cc(F)cc13)CN(C(=O)N1CCCCC1)CC2 (2.5 µM)
inactive: ERN1 = 0 | FGFR1 = 0 | FGFR2 = 0 | FGFR3 = 0 | FGR 0 | FLT3 = 0 | FYN 0 | GSK3A 0 | HER2 = 0 | INSRR 0

CCN(C)C(=O)c1ccc2c(C(=Nc3ccc(CN4CCCCC4)cc3)c3ccccc3)c(O)[nH]c2c1 (2.5 µM)
inactive: ERN1 = 0 | FGFR1 = 0 | FGFR2 = 0 | FGFR3 = 0 | FGR 0 | FLT3 = 0 | FYN 0 | GSK3A 0 | HER2 = 0 | INSRR 0

By substructure, the compounds so far containing fluorine
CC[C@H](Nc1ncnc2[nH]cnc12)c1oc2ccccc2c(=O)c1-c1cccc(F)c1 [Tenalisib] (10 µM)
inactive: ERN1 = 0 | FGFR1 = 0 | FGFR2 = 0 | FGFR3 = 0 | FGR 0 | FLT3 = 0 | FYN 0 | GSK3A 0 | HER2 = 0 | INSRR 0

O=C1NC(=O)C(c2cnc3ccccn23)=C1c1cn2c3c(cc(F)cc13)CN(C(=O)N1CCCCC1)CC2 (2.5 µM)
inactive: ERN1 = 0 | FGFR1 = 0 | FGFR2 = 0 | FGFR3 = 0 | FGR 0 | FLT3 = 0 | FYN 0 | GSK3A 0 | HER2 = 0 | INSRR 0

The list goes on.

O=c1ccoc2cc(O)ccc12 [7-Hydroxy-4H-chromen-4-one] (10 µM)
inactive: ERN1 = 0 | FGFR1 = 0 | FGFR2 = 0 | FGFR3 = 0 | FGR 0 | FLT3 = 0 | FYN 0 | GSK3A 0 | HER2 = 0 | INSRR 0

COc1ccc(CCNc2ncc3c(=O)n(-c4cccc(F)c4)c(=O)[nH]c3n2)cc1OC (2 µM)
inactive: ERN1 = 0 | FGFR1 = 0 | FGFR2 = 0 | FGFR3 = 0 | FGR 0 | FLT3 = 0 | FYN 0 | GSK3A 0 | HER2 = 0 | INSRR 0

CCCCNC(=N)NC(=N)N [Buformin (hydrochloride)] (2.5 µM)
inactive: ERN1 = 0 | FGFR1 = 0 | FGFR2 = 0 | FGFR3 = 0 | FGR 0 | FLT3 = 0 | FYN 0 | GSK3A 0 | HER2 = 0 | INSRR 0

Cc1cccc(-c2[nH]ncc2-c2ccc3ncccc3n2)n1 (10 µM)
inactive: ERN1 = 0 | FGFR1 = 0 | FGFR2 = 0 | FGFR3 = 0 | FGR 0 | FLT3 = 0 | FYN 0 | GSK3A 0 | HER2 = 0 | INSRR 0

CCN1C(=O)CNc2ncc(-c3ccc(-c4nc[nH]n4)nc3C)nc21 [CC-115 (hydrochloride)] (2.5 µM)
inactive: ERN1 = 0 | FGFR1 = 0 | FGFR2 = 0 | FGFR3 = 0 | FGR 0 | FLT3 = 0 | FYN 0 | GSK3A 0 | HER2 = 0 | INSRR 0

CC1=C(CC(=O)O)c2cc(F)ccc2/C1=C\c1ccc(C(C)C)cc1 (10 µM)
inactive: ERN1 = 0 | FGFR1 = 0 | FGFR2 = 0 | FGFR3 = 0 | FGR 0 | FLT3 = 0 | FYN 0 | GSK3A 0 | HER2 = 0 | INSRR 0

CN1C(=O)NC(Cc2c[nH]c3c(Cl)cccc23)C1=O (racemic) [Necrostatin 2 (racemate)] (10 µM)
inactive: ERN1 = 0 | FGFR1 = 0 | FGFR2 = 0 | FGFR3 = 0 | FGR 0 | FLT3 = 0 | FYN 0 | GSK3A 0 | HER2 = 0 | INSRR 0

NS(=O)(=O)c1ccc(N2N=C(c3ccccc3)CC2c2ccccc2)cc1 (stereo not given) (10 µM)
inactive: ERN1 = 0 | FGFR1 = 0 | FGFR2 = 0 | FGFR3 = 0 | FGR 0 | FLT3 = 0 | FYN 0 | GSK3A 0 | HER2 = 0 | INSRR 0

CC(C)(C)c1cc(C(c2cc3c(cc2O)OCO3)N2CCOCC2)cc(C(C)(C)C)c1O (stereo not given) (2.5 µM)
inactive: ERN1 = 0 | FGFR1 = 0 | FGFR2 = 0 | FGFR3 = 0 | FGR 0 | FLT3 = 0 | FYN 0 | GSK3A 0 | HER2 = 0 | INSRR 0

O=C(c1ccc(Nc2nccc(-c3cc4ccccc4s3)n2)cc1)N1CCC(N2CCCC2)CC1 (2.5 µM)
inactive: ERN1 = 0 | FGFR1 = 0 | FGFR2 = 0 | FGFR3 = 0 | FGR 0 | FLT3 = 0 | FYN 0 | GSK3A 0 | HER2 = 0 | INSRR 0

COc1cnccc1Nc1nc(-c2nn(Cc3c(F)cc(OCCO)cc3F)c3ccccc23)ncc1OC (10 µM)
inactive: ERN1 = 0 | FGFR1 = 0 | FGFR2 = 0 | FGFR3 = 0 | FGR 0 | FLT3 = 0 | FYN 0 | GSK3A 0 | HER2 = 0 | INSRR 0

N#C/C(=C\c1ccc2oc(=O)[nH]c2c1)C(=O)c1ccc(O)c(O)c1 (10 µM)
inactive: ERN1 = 0 | FGFR1 = 0 | FGFR2 = 0 | FGFR3 = 0 | FGR 0 | FLT3 = 0 | FYN 0 | GSK3A 0 | HER2 = 0 | INSRR 0

O=C(Nc1cccc(-c2nncn2C2CC2)c1)c1cc(-n2cnc(C3CC3)c2)ccn1 (10 µM)
inactive: ERN1 = 0 | FGFR1 = 0 | FGFR2 = 0 | FGFR3 = 0 | FGR 0 | FLT3 = 0 | FYN 0 | GSK3A 0 | HER2 = 0 | INSRR 0

O=c1nc(N2CCOCC2)oc2c(-c3cccc4c3sc3ccccc34)cccc12 (10 µM)
inactive: ERN1 = 0 | FGFR1 = 0 | FGFR2 = 0 | FGFR3 = 0 | FGR 0 | FLT3 = 0 | FYN 0 | GSK3A 0 | HER2 = 0 | INSRR 0

N#C/C(=C(/N)Sc1ccc(N)cc1)c1ccccc1C(F)(F)F (10 µM)
inactive: ERN1 = 0 | FGFR1 = 0 | FGFR2 = 0 | FGFR3 = 0 | FGR 0 | FLT3 = 0 | FYN 0 | GSK3A 0 | HER2 = 0 | INSRR 0

COc1c(C)c(C(=O)c2ccc(N)c(C(=O)O)c2)n2ccccc12 (10 µM)
inactive: ERN1 = 0 | FGFR1 = 0 | FGFR2 = 0 | FGFR3 = 0 | FGR 0 | FLT3 = 0 | FYN 0 | GSK3A 0 | HER2 = 0 | INSRR 0
